Results from patent publication US20110212053A1, “PHOSPHATIDYLINOSITOL 3 KINASE INHIBITORS” (priority 2008, published 2011).
Some of these results come from one statement about several compounds together.

Amino acid sequences for entries named in this document (tags omitted).
UniProt P11309, whole entry: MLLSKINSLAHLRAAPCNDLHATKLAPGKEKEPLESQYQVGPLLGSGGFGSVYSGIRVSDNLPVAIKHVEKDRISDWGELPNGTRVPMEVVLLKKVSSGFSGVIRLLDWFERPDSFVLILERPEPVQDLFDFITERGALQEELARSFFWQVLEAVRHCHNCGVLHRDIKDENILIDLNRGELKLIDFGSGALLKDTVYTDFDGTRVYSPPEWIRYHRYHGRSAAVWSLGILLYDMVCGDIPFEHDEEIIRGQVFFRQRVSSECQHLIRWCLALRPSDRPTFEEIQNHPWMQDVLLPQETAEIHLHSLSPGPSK

Molecular target: PIM-1 (Homo sapiens, UniProt P11309)
Experiment: Radiometric HotSpot kinase assay, PIM-1
Assay type: biochemical
Settings: 1 μM compound, 10 μM ATP
Description: Kinase Profiling: The inhibitory activity of the PI3K inhibitor compounds of the invention against 250 protein kinases was determined via the radiometric HotSpot Kinase Profiling (Reaction Biology Corporation, Malvern, Pa.). Compounds were profiled at a final concentration of 1 μM compound against recombinant protein kinases in the presence of 10 μM ATP and data were expressed as percent inhibition. IC50 and/or percent inhibition at 1 μM compound values were determined for select compounds against a subset of kinases (MELK, MNK1, MNK2, mTOR, PIM-1. TRKC, and PDGFRα(D842V)).
Compounds of the invention were assayed against the select kinases using the KinaseGLO assay (MELK) or the radiometric assay (PIM, TRKC, PDGFRα(D842V), MNK1 and mTOR). IC50 values were determined using 8-10 point half-log dose dilutions and calculated via nonlinear regression analysis using Graphpad Prism data analysis software.

`COc1cccc(-c2ccc3ncc4[nH]nc(-c5ccc(C(C)(C)C#N)cc5)c4c3c2)c1` [Compound 1115, 2-(4-(8-(3-methoxyphenyl)-3H-pyrazolo[3,4-c]quinolin-1-yl)phenyl)-2-methylpropanenitrile] was tested, and the “inhibition of PIM-1 at 1 μM” value was 50-60%.
